Results are given in words; binding and its absence hold for the method and conditions named. Binding can be weak; no strength is given.
How the values were obtained:
[1] = target: fibrinogen γ prime (human); test: summary of the experiments
[2] = target: fibrinogen γ prime (human); test: Western blot of human plasma proteins
[3] = target: fibrinogen γ prime (human); test: immunoblot of human plasma, purification and peptide mapping

Measured: binding

B1: Y1 scFv (scFv)
scFv: EVQLVESGGGVVRPGGSLRLSCAASGFTFDDYGMSWVRQAPGKGLEWVSGINWNGGSTGYADSVKGRFTISRDNAKNSLYLQMNSLRAEDTAVYYCARMRAPVIWGQGTLVTVSRGGGGSGGGGSGGGGSSELTQDPAVSVALGQTVRITCQGDSLRSYYASWYQQKPGQAPVLVIYGKNNRPSGIPDRFSGSSSGNTASLTITGAQAEDEADYYCNSRDSSGNHVVFGGGTKLTVLGAAAEQKLISEEDLNGAA
binds: all assays above

— patent publication US20040001822A1, “Y1-isolated molecules comprising epitopes containing sulfated moieties, antibodies to such epitopes, and uses thereof” (priority 2000, published 2004)
